Assay results from patent US20190119388A1 (GREEN CROSS, published 2019).
These are yes or no findings as the source states them, for the method shown. Some results given as binding are weak or reduced against the parent protein; the word gives no strength.

Target: EGFR used for panning and coated on the 96-well ELISA plate (UniProt P00533)
Assay: phage display panning (4 rounds) and ELISA on a 96-well plate coated with an EGFR

binding: binds
B1: GC1118 (antibody, human IgG1, kappa, V domains shown)
VH: EVQLVESGGGVVQPGGSLRLSCAASGFTFSDYDMSWIRQAPGKGLEWVSGILGGSERSYYRDSVKGRFTISRDNSRKTLYLQMNSLRAEDTAVYYCARHGSPGYTLYAWDYWGQGTTVTVSS
VL: DIVMTQTPLSLPVTPGEPASISCRSNQDLTHSNGNTYLEWYLQKPGQSPRLLIYKVSNRFSGVPDRFSGSGAGTDFTLRISRVEAEDVGVYYCMQGTHWPWTFGQGTKVDIKR
